For at least one entry, the source does not settle the construct or the ends of the probe. A weaker result is weaker than the reference pair of the same experiment. At least one verdict was read from the data and is not stated in words by the source.
Legend:
[1] = molecular target: GST-Ku70 SS77/78DD S77D,S78D (human) (UniProt P12956); assay: EMSA; details: 1 mM Mg2+, poly[d-(I-C)] competitor; 40 ug GST-fusion protein, 0.8 ng probe, 25 uL; 10 mM Tris-HCl pH 7.5, 50 mM NaCl, 1 mM MgCl2, 0.5 mM DTT, 4% glycerol, 1 ug poly[d-(I-C)], 0.1 ug poly-L-lysine; recombinant protein; residues 2-609; protein details: N-terminal GST (pGEX-6P-1); label: digoxigenin (DIG Gel Shift Kit)
[2] = molecular target: GST-Ku70 SS77/78EE S77E,S78E (human) (UniProt P12956); assay: EMSA; details: 1 mM Mg2+, poly[d-(I-C)] competitor; 40 ug GST-fusion protein, 0.8 ng probe, 25 uL; 10 mM Tris-HCl pH 7.5, 50 mM NaCl, 1 mM MgCl2, 0.5 mM DTT, 4% glycerol, 1 ug poly[d-(I-C)], 0.1 ug poly-L-lysine; recombinant protein; residues 2-609; protein details: N-terminal GST (pGEX-6P-1); label: digoxigenin (DIG Gel Shift Kit)

“TAGAGACGGGGTTTCACCGTGTTACCAGG / GATCTAACACACGGTGAAACCCCGTCTCTATGC [DIG-labeled DSB probe]”: binds more weakly [1]; binds more weakly [2].
